Results are given in words; binding and its absence hold for the method and conditions named. Some binding calls cover weakened binding; strength is not graded here. Where a sequence is shown, tags or fusion partners need not be part of it.
B1: T1-36 anti-CD30 scFv-Fc (Fc fusion)
scFv: EVQLLESGGGLVQPGGSLRLSCAASGFTFSYYYMSWVRQAPGKGLEWVSYIGGGGSGTYYADSVKGRFTISRDNSKNTLYLQMNSLRAEDTAVYYCARGPYYGYFDYWGQGTLVTVSSGGGGSGGGGSGGGGSQSVLTQPPSASGTPGQRVTISCSGSSSNIGSNYVYWYQQLPGTAPKLLIYRNNQRPSGVPDRFSGSKSGTSASLAISGLRSEDEADYYCAAYPSYDSYVFGGGTKLTVLG
notes: scFv-Fc-conjugated form (Zb-Fc); also called Zb-Fc form; not shown: Fc of the scFv-Fc (Zb-Fc) form and its junction
B2: T1-8 anti-CD30 scFv-Fc (Fc fusion)
scFv: EVQLLESGGGLVQPGGSLRLSCAASGFTFSSYMSWVRQAPGKGLEWVSSIGSGYYSTYYADSVKGRFTISRDNSKNTLYLQMNSLRAEDTAVYYCARDYYGGFDYWGQGTLVTVSSGGGGSGGGGSGGGGSQSVLTQPPSASGTPGQRVTISCSGSSSNIGSNYVYWYQQLPGTAPKLLIYRNNQRPSGVPDRFSGSKSGTSASLAISGLRSEDEADYYCAAYDSYSYVFGGGTKLTVLG
notes: scFv-Fc-conjugated form (Zb-Fc); also called Zb-Fc form; not shown: Human Fc of the scFv-Fc (Zb-Fc) form and its junction to the scFv
B3: T1-159 anti-CD30 scFv-Fc (Fc fusion)
scFv: EVQLLESGGGLVQPGGSLRLSCAASGFTFSSYGMSWVRQAPGKGLEWVSSIYYYSGGTYYADSVKGRFTISRDNSKNTLYLQMNSLRAEDTAVYYCARNDYRNNSDFDYWGQGTLVTVSSGGGGSGGGGSGGGGSQSVLTQPPSASGTPGQRVTISCSGSSSNIGSNYVYWYQQLPGTAPKLLIYRNNQRPSGVPDRFSGSKSGTSASLAISGLRSEDEADYYCAAYYPYYYVFGGGTKLTVLG
notes: scFv-Fc-conjugated form (Zb-Fc); also called Zb-Fc form; not shown: Fc of the scFv-Fc (Zb-Fc) form and any junction to it
B4: T1-23 anti-CD30 scFv-Fc (Fc fusion)
scFv: EVQLLESGGGLVQPGGSLRLSCAASGFTFSSYSMSWVRQAPGKGLEWVSGIGYPYYTYYADSVKGRFTISRDNSKNTLYLQMNSLRAEDTAVYYCARYYYDYGFDYWGQGTLVTVSSGGGGSGGGGSGGGGSQSVLTQPPSASGTPGQRVTISCSGSSSNIGSNYVYWYQQLPGTAPKLLIYRNNQRPSGVPDRFSGSKSGTSASLAISGLRSEDEADYYCAAYRSYDYVFGGGTKLTVLG
notes: as for B1
B5: T1-141 anti-CD30 scFv-Fc (Fc fusion)
scFv: EVQLLESGGGLVQPGGSLRLSCAASGFTFSYYDMSWVRQAPGKGLEWVSGIYGSGSTYYADSVKGRFTISRDNSKNTLYLQMNSLRAEDTAVYYCARYSYYDSYSDYFDYWGQGTLVTVSSGGGGSGGGGSGGGGSQSVLTQPPSASGTPGQRVTISCSGSSSNIGSNYVYWYQQLPGTAPKLLIYRNNQRPSGVPDRFSGSKSGTSASLAISGLRSEDEADYYCAAYSYGYYVFGGGTKLTVLG
notes: as for B1

What was measured:
[1] = biological target: CD30 LD2-mFc fusion protein (murine); assay: ELISA on plate coated with 1 µg/mL CD30 LD2-mFc, anti-human IgG-HRP
[2] = biological target: CD30 D1L-mFc fusion protein (murine); assay: ELISA on plate coated with 1 µg/mL CD30 D1L-mFc, anti-human IgG-HRP
[3] = biological target: CD30 D1D2-mFc fusion protein (murine); assay: ELISA on plate coated with 1 µg/mL CD30 D1D2-mFc, anti-human IgG-HRP

| Binder | binding [1] | binding [2] | binding [3] |
| --- | --- | --- | --- |
| B1 | binds |  |  |
| B2 |  | binds |  |
| B3 |  | binds |  |
| B4 |  | binds | binds |
| B5 |  | binds | binds |
